Only a part is listed here, and it is no random draw. For some assays here: At the low end of the ranking, values are background and their order means little.

By UniProt entry, the sequences of proteins in these tests, tags left out. Where a name states a change or a piece, a line headed by the entry shows the natural chain unless it says otherwise.
UniProt Q01892: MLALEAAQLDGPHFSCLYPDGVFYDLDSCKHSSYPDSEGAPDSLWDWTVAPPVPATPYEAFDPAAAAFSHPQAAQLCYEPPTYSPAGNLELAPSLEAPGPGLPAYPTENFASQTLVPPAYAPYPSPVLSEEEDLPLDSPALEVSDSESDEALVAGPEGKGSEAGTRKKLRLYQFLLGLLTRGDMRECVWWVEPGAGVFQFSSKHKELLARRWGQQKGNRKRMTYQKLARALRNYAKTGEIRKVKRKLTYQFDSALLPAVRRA

The target of one experiment is T1, FLI1 (UniProt Q01543).
T1 sequence: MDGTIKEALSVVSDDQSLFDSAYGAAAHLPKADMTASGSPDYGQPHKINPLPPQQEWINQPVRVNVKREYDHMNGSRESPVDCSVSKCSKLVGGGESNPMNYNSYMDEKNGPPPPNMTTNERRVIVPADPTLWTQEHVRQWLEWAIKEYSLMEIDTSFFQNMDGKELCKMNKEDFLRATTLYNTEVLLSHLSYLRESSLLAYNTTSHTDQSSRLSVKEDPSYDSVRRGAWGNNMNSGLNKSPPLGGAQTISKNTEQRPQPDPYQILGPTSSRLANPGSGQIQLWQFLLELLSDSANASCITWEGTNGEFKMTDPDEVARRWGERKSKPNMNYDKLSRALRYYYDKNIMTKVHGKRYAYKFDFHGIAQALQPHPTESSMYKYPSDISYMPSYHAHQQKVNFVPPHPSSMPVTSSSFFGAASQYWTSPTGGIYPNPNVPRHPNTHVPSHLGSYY
Nature of the experiment: DAPPL (digital affinity profiling via proximity ligation, sequencing). As to conditions: 10 mM Tris-HCl pH 7.5, 50 mM NaCl, 1 mM DTT, 4% glycerol, room temperature, 30 min; GST-TFs on glutathione beads, 16-mer random dsDNA library, 0.1% …; high values mean tight binding; double strand, one strand shown; scale: fold enrichment (6-mer frequency, TF over GST control).
In turn, TGTACG registered a binding signal of 1.18.
The same measure, in the same setting: with ACTTGC the figure was 1.46.
Sequence TAAATC had a binding signal of 1.15.
Still for that read-out and setting: with CCCTGT the figure was 1.18; with CATTCA, 1.17.
Turning to GTCCCC, the binding signal worked out at 1.14.
On the same count and under the same terms, with AATTTC the figure was 1.65; with ATTAAG, 1.04.
On the same count and under the same terms, with TCCAAC the figure was 1.22; with GGATAT, 1.61; with TCCCAG, 1.05.
Sequence TCTGGC displayed a binding signal of 1.36.
Same read-out and setting: with GTATAC the figure was 1.28; with ATATCA, 1.23.
The sequence ACCTTG registered a binding signal of 1.27.
On the same count and under the same terms, with CTCAAG the figure was 1.29.
Sequence TCTTAT had a binding signal of 1.41.
For TTTAGT, the binding signal amounted to 1.13.
In turn, GGCCTT displayed a binding signal of 1.17.
In turn, TCGTCT showed a binding signal of 1.52.
Consider GGAACT, for which the binding signal was determined as 1.83.
The sequence TTCGGC had a binding signal of 1.03.
Same read-out and setting: with GTATCC the figure was 1.88; with CGACAT, 1.37; with TGTTTT, 1.36.
Still for that read-out and setting: with AGGAAG the figure was 1.24; with TTGTAT, 1.52.
As for TGACTA, the binding signal is 1.14.
Regarding AATCTC, the binding signal turned out to be 1.26.
CGCGCG came in with a binding signal of 0.92.
Sequence TTCCAT returned a binding signal of 1.38.
Same read-out and setting: with AATGTA the figure was 1.19; with TACCTA, 1.32; with AGTATT, 1.12.
On the same count and under the same terms, with TAATTA the figure was 1.24; with ATTCCA, 1.17.
CTACAA had a binding signal of 1.17.
In the case of TAATAC, the binding signal is 1.11.
Sequence GCTTAC showed a binding signal of 1.19.
AGCCTT yielded a binding signal of 1.12.

In the next experiment the target is T2, EHF (UniProt Q9NZC4).
T2 sequence: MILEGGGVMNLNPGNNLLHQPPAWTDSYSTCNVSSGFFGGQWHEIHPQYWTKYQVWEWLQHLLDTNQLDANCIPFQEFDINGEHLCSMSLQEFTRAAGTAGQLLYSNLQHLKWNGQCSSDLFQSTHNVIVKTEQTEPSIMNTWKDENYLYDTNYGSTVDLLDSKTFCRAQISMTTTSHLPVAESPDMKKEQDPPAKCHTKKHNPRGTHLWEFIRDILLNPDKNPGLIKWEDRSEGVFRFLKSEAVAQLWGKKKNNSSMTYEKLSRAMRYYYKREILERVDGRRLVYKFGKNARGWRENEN
The description is as above. To be noted: 10 mM Tris-HCl pH 7.5, 50 mM NaCl, 1 mM DTT, 4% glycerol, room temperature, 30 min; GST-TFs on glutathione beads, 16-mer random dsDNA library, 0.1% …; high values mean tight binding; double strand, one strand shown; scale: fold enrichment (6-mer frequency, TF over GST control).
TGTACG yielded a binding signal of 1.12.
Sequence TAAATC yielded a binding signal of 1.17.
CCCTGT displayed a binding signal of 1.09.
In the case of CATTCA, the binding signal stood at 1.05.
The same measure, in the same setting: with GTCCCC the figure was 1.28; with AATTTC, 1.77; with ATTAAG, 1.04.
Sequence TCCAAC registered a binding signal of 1.23.
Sequence GGATAT showed a binding signal of 1.55.
As for TCCCAG, the binding signal worked out at 1.1.
The same measure, in the same setting: with TCTGGC the figure was 1.22; with GTATAC, 1.22; with ATATCA, 1.15.
The sequence ACCTTG yielded a binding signal of 1.3.
The sequence CTCAAG had a binding signal of 1.21.
The sequence TCTTAT returned a binding signal of 1.16.
For the sequence TTTAGT, the binding signal is 0.975.
Sequence GGCCTT registered a binding signal of 1.13.
As for TCGTCT, the binding signal turned out to be 1.38.
GGAACT: the binding signal was 1.8.
Regarding TTCGGC, the binding signal is 0.978.
Same read-out and setting: with GTATCC the figure was 1.92.
Still for that read-out and setting: with CGACAT the figure was 1.26; with TGTTTT, 1.35; with TTGTAT, 1.37.
TGACTA returned a binding signal of 1.11.
On the same count and under the same terms, with AATCTC the figure was 1.27; with CGCGCG, 0.937.
Take TTCCAT: the binding signal worked out at 1.28.
With AATGTA, the binding signal came to 1.22.
In turn, TACCTA came in with a binding signal of 1.22.
Sequence AGTATT displayed a binding signal of 1.15.
ATTCCA: the binding signal turned out to be 1.13.
As to CTACAA, the binding signal stood at 1.14.
On to TAATAC, for which the binding signal turned out to be 1.13.
In turn, GCTTAC had a binding signal of 1.16.
Take AGCCTT: the binding signal is 1.15.

Another experiment deals with SPIB (UniProt Q01892). Described as above. As to conditions: 10 mM Tris-HCl pH 7.5, 50 mM NaCl, 1 mM DTT, 4% glycerol, room temperature, 30 min; GST-TFs on glutathione beads, 16-mer random dsDNA library, 0.1% …; high values mean tight binding; double strand, one strand shown; scale: fold enrichment (6-mer frequency, TF over GST control).
The sequence ACTTGC registered a binding signal of 1.35.
AGGAAG displayed a binding signal of 1.44.
Same read-out and setting: with TAATTA the figure was 1.27.

A further experiment concerns the target T3, ETV3L (UniProt Q6ZN32).
T3 sequence: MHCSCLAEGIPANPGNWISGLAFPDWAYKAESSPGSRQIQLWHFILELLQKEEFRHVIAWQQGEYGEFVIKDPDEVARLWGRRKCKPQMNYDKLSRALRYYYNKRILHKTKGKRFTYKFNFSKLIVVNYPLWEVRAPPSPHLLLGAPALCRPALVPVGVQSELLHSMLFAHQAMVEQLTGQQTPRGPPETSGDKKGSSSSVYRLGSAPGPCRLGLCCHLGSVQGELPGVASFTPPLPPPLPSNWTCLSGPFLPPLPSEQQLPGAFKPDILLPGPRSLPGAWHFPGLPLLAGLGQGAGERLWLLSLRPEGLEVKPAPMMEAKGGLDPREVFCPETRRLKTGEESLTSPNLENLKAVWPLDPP
The description is as above. To be noted: 10 mM Tris-HCl pH 7.5, 50 mM NaCl, 1 mM DTT, 4% glycerol, room temperature, 30 min; GST-TFs on glutathione beads, 16-mer random dsDNA library, 0.1% …; high values mean tight binding; double strand, one strand shown; scale: fold enrichment (6-mer frequency, TF over GST control).
For ACTTGC, the binding signal turned out to be 1.48.
As for AGGAAG, the binding signal came to 1.33.
TAATTA gave a binding signal of 1.23.

(Values after PMC7862700.)
